Results are given in words; binding and its absence hold for the method and conditions named. In cells and extracts the contact can be indirect. These calls come from enrichment with a bait or labelling near it, and not all partners need be listed.
Target: FLAG-SET/TAF-Iβ (UniProt Q01105)
Assay: affinity purification with mass spectrometry; FLAG-SET/TAF-Iβ overexpressed in HCT116 cells, immunoprecipitated with anti-FLAG antibody, SDS-PAGE, in-gel trypsin digestion, LC-MS/MS

Sequences of proteins named here, by UniProt entry; tags and fusion partners are left off. A change or cut given only in a name is not applied to a line headed by its entry. A line that says so, or that is headed by a name, gives the form on record, which may keep a tag or linker.
FLAG-SET/TAF-Iβ (Q01105, form named): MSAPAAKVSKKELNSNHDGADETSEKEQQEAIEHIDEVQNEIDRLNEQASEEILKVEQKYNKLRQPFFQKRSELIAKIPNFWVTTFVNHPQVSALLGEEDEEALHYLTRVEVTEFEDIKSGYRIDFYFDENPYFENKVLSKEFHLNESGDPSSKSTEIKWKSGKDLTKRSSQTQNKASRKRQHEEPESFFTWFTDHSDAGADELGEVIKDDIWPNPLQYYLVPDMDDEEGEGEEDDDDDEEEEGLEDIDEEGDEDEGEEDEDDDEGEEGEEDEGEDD
UniProt P19474: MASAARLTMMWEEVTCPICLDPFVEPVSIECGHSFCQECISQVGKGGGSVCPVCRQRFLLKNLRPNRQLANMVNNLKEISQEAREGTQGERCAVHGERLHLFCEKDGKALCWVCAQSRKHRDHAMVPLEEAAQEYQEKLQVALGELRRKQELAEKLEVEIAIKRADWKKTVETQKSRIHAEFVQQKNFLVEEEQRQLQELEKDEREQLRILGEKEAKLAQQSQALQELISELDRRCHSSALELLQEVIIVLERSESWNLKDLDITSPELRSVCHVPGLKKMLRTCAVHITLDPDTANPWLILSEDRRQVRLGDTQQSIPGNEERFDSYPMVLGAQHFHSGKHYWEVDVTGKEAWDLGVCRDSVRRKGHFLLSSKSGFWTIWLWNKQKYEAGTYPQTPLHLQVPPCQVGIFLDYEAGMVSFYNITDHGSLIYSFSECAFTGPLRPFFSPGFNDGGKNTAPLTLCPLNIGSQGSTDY

binding: binds
Substance: TRIM21, endogenous (from UniProt P19474 1-475)

From publication PMC10516711
